Experimental data: PMC3582507
No constants are given. Whether binding was seen depends on the method and setting. In cells and extracts the contact can be indirect. Here binding means that the protein was enriched with, or labelled near, the bait; the list need not be complete.

Molecular target: T1, Gps1-TAP (S. cerevisiae) (UniProt Q99299)
T1 sequence: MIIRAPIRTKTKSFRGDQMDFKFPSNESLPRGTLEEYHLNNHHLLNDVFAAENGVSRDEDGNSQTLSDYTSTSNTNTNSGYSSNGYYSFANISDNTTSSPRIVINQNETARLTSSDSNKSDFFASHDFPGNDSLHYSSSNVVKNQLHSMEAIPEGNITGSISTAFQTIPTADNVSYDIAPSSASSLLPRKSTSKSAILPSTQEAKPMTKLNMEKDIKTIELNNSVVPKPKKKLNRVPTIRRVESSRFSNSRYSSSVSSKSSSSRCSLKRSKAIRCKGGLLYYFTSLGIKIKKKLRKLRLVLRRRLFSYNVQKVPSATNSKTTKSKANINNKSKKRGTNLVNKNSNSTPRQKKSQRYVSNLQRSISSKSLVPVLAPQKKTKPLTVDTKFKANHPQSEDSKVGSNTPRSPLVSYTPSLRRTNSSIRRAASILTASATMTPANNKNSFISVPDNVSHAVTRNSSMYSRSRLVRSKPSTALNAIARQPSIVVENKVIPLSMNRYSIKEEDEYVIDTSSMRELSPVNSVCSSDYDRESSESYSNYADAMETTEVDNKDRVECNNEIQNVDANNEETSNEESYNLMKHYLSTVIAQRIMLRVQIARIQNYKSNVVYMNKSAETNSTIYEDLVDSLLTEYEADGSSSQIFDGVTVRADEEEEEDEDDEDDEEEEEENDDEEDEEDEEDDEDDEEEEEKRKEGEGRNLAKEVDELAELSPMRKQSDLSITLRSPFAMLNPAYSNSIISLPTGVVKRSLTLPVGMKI
Test: affinity purification with mass spectrometry; large-scale TAP purification of Gps1-TAP from 1.6-l yeast culture with Dynabeads coupled to rabbit IgG; interacting proteins identified by mass spectrometry

B1: Nba1 (protein, UniProt Q08229 1-501)
chain: MSEEREENGISRATLNTQRLSAMIDSLNNEKDDRLFPSPTTTRTMITEEKADQSDVFKPPSRLLRSPAGDVSLPPGDNRSSMISNYSGIIQEGVEVSYVVKNRQQTQERRTSKDSNSLYSLKEPVSKNELPSLPMLPSEATLTKHLSDNQSTKSNTNADEIVIKPVTNAKPVGRFNSNTSKKVEGRGSLKLLSSPLRQEKVMRSSIGSGNLASESGSSTYNTKFHQSIQEQLEEEEEGNVSDKLSIVSSVIPELYTTTNEAPKAINPIRSETNDYNPTIPPRSKDRPRSRLFIEEGDGEGDLLTEEILPTPVQPGGHYKNSSQISTVSEQKSESYYSAATSMPPEEETYLTRPLPSTPNEDSRVTSNLKRDDTLKAIHDRANHTSTSTNKQDDDMYEDIIEETPKKTKLKKDTKKKLNKKKSVKELRSFDIDTLNQLLSVTKGTLIGSEFAQLGMKIEEKRALERLVDSLSRLTADMVLDPDRYEEGLKRLDKATKALEGF
Q: How did the binding turn out when B1 was run?
A: binds

B2: Nis1 (protein, UniProt P53939 1-407)
chain: METYETSIGTQSYPPTLFPPPLGTGGFTTSGYIHALVDSTSNSNSNSNTNSNTNSNTNSNSDTKIPIVQISDDSHITHDSFKPYMEYHDASHLRNRNISKADQVESTEVMEQFTQWSNYKMRSRSPTINAKPIRHTSQRRTDFTSKNELSKFSKNHNFIFHKGFLKRQHSIRREDRQAKVRSRFRSKKELTSVLNYIELEQMDIANVLASQPVNLHAIRNLTSRDPAVTPIPFLRSQMYATSSRPPYLRNRSISRKLPKSQPGSLPTTMPATATKTIKQNSTTPTTRSVYNKNVGRSNTSPSVLYHPKRRGKLNTKSHARKEQLLLELWREYLMLVITQRTQLRLTLLCSPGSASNESSVCSSNASDLDMSLLSTPSSLFQMAGETKSNPIIIPDSQDDSILSSDPF
Q: With B2 as the binder, how does the binding read?
A: binds
